The record followed here is article PMC6078311, “Localization and functional characterization of the pathogenesis-related proteins Rbe1p and Rbt4p in Candida albicans” (PLoS ONE, 2018).

The target of this assay is Rbe1p with a C-terminal V5/His6-tag (Candida albicans) (UniProt Q59ZX3). Kind of assay: affinity purification with mass spectrometry; V5-tag affinity purification from the DTT-sensitive cell wall fraction of C. albicans yeast cells; elution separated by SDS-PAGE, Coomassie-stained ~135 kDa band excised and analysed by Nano-LC-MS/MS, compared with the untagged control strain.

No constants are given. Whether binding was seen depends on the method and setting. Binding seen in cells or lysates may run through a third protein. A yes stands for co-enrichment or nearness to the bait. Other partners may have been found. Tags and fused reporters may be left off the sequences shown.

B1: Rbe1p with a C-terminal V5/His6-tag (protein, UniProt Q59ZX3 20-271)
chain: ATITKFFTASTQTLFVTQTSQTVVATKSFVETIYSAPPKQLTSKTQDSTSPTTSSVNSLTSSSATSYVETTTPAPSSSTLTTSTISSSTASEDSDATPTADVEFAEEILKEHNVKRALHGVPALSWSNKLAEYAQDYANTGFDCSNLNLKHSGGPYGENLAAGYMGGISPVDAWYDEISMVDWNNVDFTESTGHFTQLVWRSTTQVGCAKMMCSTAWRQITVCEYLPRGNVIGLNVTSGHSYFVDNVLPPLK
modifications: O-glycosylated and N-glycosylated (sites not given)
With B1, the binding entry was “binds”.
